This assay addresses glucocorticoid receptor (human (endogenous in KGN)) (UniProt P04150). The experiment in a line: co-IP; KGN cells treated with 0.1 uM or 1 uM CORT for 48 or 72 h, lysed in RIPA buffer; GR antibody (1 ug) overnight at 4 C, protein A/G magnetic beads, five washes; Western blot for IGF1R. (Immunoblotting shows a protein as a band on a membrane.)

Chains of the proteins cited; added tags and fusions are not shown. Residues count along the entry.
UniProt P04150: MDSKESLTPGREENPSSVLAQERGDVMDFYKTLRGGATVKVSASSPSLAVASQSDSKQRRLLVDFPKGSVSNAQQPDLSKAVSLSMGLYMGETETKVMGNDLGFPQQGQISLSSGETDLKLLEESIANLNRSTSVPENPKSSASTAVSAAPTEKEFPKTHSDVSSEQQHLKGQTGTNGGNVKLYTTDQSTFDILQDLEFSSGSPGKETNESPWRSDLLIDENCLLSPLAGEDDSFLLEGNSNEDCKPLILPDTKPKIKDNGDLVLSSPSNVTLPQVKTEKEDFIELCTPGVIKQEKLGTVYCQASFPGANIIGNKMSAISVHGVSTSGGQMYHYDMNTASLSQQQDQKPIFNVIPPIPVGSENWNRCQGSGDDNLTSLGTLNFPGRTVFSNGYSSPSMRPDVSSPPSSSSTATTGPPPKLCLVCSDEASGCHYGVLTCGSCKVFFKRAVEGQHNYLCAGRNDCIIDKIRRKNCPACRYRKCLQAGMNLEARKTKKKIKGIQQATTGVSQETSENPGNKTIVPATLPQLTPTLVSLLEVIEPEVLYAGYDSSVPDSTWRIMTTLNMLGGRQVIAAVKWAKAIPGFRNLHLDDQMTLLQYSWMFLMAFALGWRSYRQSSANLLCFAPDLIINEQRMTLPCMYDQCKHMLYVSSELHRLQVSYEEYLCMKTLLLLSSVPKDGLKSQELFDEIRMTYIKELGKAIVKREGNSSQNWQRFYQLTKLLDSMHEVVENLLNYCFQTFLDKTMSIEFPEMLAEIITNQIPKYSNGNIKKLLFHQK
UniProt P08069, residues 31-1367: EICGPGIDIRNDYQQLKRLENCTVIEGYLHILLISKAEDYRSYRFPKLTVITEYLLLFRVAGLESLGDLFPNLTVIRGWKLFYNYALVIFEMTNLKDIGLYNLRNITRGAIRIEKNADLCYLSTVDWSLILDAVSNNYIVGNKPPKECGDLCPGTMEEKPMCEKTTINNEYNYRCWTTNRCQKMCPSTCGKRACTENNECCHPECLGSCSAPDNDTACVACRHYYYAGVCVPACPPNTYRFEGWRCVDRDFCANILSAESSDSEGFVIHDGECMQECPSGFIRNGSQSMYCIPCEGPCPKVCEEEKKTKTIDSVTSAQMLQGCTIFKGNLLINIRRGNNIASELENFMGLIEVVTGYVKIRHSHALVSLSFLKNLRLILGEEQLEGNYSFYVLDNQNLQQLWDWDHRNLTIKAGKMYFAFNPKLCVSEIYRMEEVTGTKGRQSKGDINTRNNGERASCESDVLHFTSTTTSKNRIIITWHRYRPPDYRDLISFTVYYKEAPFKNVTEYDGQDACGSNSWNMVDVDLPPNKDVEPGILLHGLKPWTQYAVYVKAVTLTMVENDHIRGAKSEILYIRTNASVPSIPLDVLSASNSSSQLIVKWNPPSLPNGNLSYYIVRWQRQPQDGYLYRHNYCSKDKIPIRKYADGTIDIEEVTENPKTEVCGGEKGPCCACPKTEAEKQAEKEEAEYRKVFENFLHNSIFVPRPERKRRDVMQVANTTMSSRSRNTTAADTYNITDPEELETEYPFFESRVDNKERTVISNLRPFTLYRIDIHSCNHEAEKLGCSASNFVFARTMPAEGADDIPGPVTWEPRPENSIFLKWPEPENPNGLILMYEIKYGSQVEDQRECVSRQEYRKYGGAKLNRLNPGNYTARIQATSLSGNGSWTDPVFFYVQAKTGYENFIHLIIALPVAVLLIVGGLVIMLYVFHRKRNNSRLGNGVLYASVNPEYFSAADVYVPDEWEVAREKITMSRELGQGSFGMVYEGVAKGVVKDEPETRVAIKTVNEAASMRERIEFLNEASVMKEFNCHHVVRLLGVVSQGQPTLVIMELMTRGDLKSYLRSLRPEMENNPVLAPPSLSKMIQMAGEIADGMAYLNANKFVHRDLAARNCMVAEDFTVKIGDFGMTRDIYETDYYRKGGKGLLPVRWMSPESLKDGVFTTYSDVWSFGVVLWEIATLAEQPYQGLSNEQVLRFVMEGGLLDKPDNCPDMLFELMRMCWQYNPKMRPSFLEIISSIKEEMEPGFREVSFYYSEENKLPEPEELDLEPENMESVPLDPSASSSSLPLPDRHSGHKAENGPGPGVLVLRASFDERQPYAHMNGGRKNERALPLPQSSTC

No constants are given. Whether binding was seen depends on the method and setting. In cells and extracts the contact can be indirect. Some entries that bind do so weakly or less than the wild type.

Turning to “insulin-like growth factor 1 receptor (from UniProt P08069 31-1367)”, the binding result is reported as “binds”.

These data come from PMC9627217.
